From publication PMC4867686
Results are given in words; binding and its absence hold for the method and conditions named. Some binding calls cover weakened binding; strength is not graded here. Tags and fused reporters may be left off the sequences shown.

Legend:
[1] = target: T1, phyA:BD (Arabidopsis phyA holophytochrome bait, BD at the C-terminus) (Arabidopsis) (UniProt P14712); experiment: two-hybrid; mating of Y187 bait strain to AH109 prey strain, selection on PCB supplemented medium in Rc
T1 sequence (chain, phycocyanobilin (PCB) chromophore, auto-assembled in yeast fed with PCB): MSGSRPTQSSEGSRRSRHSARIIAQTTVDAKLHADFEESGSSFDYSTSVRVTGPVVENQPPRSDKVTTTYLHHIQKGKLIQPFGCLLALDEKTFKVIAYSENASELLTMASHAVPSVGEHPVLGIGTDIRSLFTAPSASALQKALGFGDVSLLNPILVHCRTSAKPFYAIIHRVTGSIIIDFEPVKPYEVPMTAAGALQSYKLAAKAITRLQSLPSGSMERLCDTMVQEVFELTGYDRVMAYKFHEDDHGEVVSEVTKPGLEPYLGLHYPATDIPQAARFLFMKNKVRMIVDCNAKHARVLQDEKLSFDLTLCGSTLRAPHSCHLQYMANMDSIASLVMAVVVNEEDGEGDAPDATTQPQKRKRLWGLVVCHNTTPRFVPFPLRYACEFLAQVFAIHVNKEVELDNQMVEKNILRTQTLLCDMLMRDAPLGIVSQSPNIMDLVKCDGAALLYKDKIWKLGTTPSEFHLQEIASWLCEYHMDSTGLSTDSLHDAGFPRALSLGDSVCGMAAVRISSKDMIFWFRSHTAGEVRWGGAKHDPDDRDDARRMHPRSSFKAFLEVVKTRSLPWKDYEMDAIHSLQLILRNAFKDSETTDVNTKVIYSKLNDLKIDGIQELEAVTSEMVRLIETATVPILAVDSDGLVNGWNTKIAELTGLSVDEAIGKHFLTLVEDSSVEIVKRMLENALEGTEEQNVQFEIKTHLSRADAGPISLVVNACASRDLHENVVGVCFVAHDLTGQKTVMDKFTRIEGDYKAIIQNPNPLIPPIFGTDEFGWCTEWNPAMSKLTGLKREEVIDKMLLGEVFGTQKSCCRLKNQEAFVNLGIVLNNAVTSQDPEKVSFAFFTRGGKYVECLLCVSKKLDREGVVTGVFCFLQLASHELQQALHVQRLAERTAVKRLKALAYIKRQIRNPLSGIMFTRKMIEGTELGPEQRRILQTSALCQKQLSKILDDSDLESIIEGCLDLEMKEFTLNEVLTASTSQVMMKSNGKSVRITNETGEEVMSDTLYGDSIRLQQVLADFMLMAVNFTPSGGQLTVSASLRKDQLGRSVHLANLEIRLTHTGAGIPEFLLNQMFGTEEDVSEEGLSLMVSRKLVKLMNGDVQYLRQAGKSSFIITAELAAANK

[2] = target: T2, BD:phyA (Arabidopsis phyA holophytochrome bait, BD at the N-terminus) (Arabidopsis) (UniProt P14712); experiment: two-hybrid; MatchMaker GAL4 System 3; semi-quantitative growth assay, 2 x 10^5 doubly transformed yeast cells spotted on TSD (-Trp/-Leu/-His) with 3-AT (2.5 mM or 1 mM) and 30 uM PCB, 5 days in Rc, Rp, Rp+FRp or D
T2 sequence (chain, phycocyanobilin (PCB) chromophore, auto-assembled in yeast fed with PCB): T1 sequence (chain, phycocyanobilin (PCB) chromophore, auto-assembled in yeast fed with PCB)

[3] = target: T1, phyA:BD (Arabidopsis phyA holophytochrome bait, BD at the C-terminus) (Arabidopsis); experiment: as above

Measured: binding

B1: AD:FHY1 (FAR-RED-ELONGATED HYPOCOTYL 1) (protein, UniProt Q8S4Q6 1-202)
chain: MPEVEVDNNNEKPSEINSFHHMIISSSKNVLKMEEVEVSKKRKFQTDQSDELSLLPLSKHTCFANVACSENTNGNSEIDTEYSMSSYVNSTTSMECNNDIEMKEESSGSCGEDKMISFESHLDYIYGTQNLEDFSEKVIENILYLDEQEEEEEDAKGCSSNAAKFVLSSGRWTVNQDDSTLHETKKPTIDQEFEQYFSTLML
binds: [1] | [2] | [3]
